In the supplement of paper PMC6411743:
± gives the standard deviation of the averaged measurements. The list shows a part of the results.

The chains behind the UniProt entries cited, without tags or fusion partners. Where a name states a change or a piece, a line headed by the entry shows the natural chain unless it says otherwise.
UniProt Q9H9Y6, whole entry: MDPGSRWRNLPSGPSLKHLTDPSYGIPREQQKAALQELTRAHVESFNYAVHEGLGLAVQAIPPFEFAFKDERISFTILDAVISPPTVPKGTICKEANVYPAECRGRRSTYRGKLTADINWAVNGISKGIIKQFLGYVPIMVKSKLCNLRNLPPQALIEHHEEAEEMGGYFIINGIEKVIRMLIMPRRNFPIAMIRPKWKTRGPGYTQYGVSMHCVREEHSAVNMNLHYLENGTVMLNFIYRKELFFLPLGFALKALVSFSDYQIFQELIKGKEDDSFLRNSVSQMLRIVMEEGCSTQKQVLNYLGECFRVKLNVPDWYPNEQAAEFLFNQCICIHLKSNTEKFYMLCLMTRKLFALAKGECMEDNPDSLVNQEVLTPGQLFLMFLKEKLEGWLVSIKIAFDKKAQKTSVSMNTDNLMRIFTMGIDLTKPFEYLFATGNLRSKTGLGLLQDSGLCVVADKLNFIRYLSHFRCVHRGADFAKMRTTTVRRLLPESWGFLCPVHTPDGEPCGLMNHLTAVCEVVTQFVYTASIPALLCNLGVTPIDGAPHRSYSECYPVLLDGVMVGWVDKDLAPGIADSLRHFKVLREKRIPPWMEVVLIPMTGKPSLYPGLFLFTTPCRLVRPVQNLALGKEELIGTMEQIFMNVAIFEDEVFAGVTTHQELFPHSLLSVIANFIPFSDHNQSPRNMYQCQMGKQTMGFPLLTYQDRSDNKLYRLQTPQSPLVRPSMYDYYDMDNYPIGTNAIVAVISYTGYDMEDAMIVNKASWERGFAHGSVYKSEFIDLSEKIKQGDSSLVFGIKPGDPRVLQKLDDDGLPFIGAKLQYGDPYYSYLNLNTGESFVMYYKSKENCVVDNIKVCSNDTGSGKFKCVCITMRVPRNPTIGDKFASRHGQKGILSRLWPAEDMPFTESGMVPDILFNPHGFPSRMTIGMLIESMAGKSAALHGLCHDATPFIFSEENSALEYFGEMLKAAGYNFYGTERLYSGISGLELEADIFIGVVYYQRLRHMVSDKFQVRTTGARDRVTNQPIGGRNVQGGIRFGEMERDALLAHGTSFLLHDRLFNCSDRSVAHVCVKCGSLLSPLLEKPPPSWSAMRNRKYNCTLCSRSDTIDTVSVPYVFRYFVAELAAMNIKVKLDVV
UniProt Q9C0E8: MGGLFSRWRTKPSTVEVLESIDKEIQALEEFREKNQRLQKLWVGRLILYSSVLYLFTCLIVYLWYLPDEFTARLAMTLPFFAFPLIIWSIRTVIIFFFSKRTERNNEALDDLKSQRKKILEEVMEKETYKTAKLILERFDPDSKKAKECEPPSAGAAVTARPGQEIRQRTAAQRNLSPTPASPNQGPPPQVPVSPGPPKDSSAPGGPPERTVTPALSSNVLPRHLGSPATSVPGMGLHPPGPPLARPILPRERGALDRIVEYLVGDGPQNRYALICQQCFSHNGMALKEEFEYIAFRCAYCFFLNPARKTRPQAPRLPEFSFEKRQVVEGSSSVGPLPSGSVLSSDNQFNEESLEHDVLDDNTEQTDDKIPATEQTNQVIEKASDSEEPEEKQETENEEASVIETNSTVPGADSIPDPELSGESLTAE
UniProt Q9H300: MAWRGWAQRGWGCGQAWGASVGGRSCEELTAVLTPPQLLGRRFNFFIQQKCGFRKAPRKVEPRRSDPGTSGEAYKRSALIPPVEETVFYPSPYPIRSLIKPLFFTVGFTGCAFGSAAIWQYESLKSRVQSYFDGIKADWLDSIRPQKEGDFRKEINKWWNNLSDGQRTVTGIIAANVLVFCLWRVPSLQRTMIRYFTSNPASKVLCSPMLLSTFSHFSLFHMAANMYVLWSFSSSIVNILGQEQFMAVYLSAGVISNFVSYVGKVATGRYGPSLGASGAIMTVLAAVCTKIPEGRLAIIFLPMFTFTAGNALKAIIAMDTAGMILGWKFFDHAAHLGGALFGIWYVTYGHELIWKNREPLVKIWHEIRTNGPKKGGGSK
UniProt Q9H6Y2: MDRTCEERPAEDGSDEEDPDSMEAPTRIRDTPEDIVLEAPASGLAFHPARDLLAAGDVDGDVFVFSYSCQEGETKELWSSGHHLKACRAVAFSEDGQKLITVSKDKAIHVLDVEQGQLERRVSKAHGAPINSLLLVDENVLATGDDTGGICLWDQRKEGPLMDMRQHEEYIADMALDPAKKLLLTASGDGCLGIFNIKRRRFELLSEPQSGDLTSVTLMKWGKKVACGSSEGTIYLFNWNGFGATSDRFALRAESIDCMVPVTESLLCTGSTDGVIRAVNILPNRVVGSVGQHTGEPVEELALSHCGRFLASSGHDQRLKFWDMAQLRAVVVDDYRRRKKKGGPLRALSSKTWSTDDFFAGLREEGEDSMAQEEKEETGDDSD
UniProt Q9H425: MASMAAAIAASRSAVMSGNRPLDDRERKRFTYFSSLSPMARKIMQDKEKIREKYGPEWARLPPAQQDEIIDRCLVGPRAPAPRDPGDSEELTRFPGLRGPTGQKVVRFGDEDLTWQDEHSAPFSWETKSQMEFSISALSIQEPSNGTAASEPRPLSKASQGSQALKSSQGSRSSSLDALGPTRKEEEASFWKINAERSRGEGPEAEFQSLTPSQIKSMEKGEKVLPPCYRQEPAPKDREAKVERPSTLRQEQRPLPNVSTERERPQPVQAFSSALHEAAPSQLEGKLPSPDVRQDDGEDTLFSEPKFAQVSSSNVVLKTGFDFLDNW
UniProt Q9HB21: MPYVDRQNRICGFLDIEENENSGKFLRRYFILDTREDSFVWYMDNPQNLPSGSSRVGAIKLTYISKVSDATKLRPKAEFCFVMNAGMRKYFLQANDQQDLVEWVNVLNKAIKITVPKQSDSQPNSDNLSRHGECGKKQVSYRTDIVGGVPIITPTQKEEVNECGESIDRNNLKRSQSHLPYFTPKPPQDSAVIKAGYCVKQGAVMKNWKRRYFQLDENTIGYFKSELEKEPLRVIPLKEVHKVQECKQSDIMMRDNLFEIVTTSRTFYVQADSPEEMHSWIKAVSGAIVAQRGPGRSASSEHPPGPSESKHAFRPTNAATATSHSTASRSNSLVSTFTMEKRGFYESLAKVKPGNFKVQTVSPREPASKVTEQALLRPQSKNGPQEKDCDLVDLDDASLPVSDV
UniProt Q9H7N4: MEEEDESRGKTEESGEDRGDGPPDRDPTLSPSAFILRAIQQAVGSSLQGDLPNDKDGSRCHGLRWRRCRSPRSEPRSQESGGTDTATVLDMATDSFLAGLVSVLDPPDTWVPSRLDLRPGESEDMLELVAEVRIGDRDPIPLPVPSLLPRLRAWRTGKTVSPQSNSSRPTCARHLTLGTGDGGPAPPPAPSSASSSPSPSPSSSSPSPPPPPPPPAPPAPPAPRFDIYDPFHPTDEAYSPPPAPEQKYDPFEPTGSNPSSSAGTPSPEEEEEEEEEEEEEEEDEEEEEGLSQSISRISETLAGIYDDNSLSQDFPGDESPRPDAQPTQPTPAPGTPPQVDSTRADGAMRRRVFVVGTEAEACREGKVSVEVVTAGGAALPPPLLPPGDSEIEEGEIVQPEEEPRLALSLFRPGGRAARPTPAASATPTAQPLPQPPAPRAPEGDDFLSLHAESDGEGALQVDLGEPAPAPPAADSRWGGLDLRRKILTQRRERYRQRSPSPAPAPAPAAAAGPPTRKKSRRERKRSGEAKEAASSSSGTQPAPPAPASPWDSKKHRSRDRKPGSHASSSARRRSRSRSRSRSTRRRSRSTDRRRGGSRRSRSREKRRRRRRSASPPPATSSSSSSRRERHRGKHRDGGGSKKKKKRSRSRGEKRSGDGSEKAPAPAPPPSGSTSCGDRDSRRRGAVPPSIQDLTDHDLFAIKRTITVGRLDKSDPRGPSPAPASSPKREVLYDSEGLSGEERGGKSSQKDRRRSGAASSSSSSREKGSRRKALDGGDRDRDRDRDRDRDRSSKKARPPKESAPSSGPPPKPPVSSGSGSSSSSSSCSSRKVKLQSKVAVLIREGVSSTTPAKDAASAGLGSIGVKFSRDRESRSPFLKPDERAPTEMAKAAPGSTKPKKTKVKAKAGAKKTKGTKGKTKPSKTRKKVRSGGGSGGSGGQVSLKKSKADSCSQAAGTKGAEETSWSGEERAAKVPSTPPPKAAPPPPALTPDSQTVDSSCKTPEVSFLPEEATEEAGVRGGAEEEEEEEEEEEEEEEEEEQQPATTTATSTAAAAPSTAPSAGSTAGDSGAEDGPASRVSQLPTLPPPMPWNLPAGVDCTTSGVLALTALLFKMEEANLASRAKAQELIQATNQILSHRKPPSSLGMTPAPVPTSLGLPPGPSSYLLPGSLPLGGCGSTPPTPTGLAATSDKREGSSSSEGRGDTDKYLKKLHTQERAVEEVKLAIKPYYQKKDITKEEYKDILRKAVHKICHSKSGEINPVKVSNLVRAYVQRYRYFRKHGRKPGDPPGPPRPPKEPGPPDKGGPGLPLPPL
UniProt Q9HAB8: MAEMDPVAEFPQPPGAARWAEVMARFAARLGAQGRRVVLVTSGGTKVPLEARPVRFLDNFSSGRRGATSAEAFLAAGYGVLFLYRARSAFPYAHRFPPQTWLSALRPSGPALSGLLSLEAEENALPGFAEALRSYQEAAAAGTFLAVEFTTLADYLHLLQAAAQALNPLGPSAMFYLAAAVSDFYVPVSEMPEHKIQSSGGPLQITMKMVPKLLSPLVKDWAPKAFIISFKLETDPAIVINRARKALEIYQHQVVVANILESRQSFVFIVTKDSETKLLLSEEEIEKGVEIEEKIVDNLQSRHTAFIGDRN
UniProt Q9H078: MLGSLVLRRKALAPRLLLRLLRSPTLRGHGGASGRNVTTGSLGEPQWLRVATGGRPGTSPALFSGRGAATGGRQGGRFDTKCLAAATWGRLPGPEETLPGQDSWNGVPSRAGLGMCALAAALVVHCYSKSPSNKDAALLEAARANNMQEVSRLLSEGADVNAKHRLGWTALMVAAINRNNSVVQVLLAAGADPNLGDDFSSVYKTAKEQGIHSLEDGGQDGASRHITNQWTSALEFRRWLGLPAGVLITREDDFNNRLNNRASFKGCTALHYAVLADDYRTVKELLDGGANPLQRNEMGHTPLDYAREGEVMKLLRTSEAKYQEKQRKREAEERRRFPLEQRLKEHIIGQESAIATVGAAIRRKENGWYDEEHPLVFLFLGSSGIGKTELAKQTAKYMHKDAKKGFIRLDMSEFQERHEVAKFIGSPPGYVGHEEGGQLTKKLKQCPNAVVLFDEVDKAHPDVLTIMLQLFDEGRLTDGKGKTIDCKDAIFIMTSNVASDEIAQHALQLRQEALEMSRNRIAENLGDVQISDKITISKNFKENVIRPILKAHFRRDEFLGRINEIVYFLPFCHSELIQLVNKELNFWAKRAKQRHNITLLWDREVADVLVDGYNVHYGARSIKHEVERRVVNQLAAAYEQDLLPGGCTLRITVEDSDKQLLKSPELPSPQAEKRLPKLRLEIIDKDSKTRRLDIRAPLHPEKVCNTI
UniProt Q9GZY4: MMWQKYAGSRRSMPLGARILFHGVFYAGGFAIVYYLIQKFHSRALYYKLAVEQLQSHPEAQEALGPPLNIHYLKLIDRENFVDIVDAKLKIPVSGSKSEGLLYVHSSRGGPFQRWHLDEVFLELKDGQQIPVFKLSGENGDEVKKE
UniProt Q9GZS1, whole entry: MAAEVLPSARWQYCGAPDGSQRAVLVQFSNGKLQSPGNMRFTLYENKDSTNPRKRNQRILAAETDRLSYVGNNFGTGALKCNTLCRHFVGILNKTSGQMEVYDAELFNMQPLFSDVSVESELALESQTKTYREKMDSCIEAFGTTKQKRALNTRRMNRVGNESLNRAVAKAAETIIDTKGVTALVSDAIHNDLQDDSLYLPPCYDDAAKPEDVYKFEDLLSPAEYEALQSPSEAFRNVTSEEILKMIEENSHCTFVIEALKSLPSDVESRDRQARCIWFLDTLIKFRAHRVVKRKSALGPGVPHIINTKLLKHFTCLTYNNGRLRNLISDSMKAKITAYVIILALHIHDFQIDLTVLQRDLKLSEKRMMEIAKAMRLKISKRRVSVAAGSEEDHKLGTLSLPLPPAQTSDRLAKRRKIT
UniProt Q9H6Z4: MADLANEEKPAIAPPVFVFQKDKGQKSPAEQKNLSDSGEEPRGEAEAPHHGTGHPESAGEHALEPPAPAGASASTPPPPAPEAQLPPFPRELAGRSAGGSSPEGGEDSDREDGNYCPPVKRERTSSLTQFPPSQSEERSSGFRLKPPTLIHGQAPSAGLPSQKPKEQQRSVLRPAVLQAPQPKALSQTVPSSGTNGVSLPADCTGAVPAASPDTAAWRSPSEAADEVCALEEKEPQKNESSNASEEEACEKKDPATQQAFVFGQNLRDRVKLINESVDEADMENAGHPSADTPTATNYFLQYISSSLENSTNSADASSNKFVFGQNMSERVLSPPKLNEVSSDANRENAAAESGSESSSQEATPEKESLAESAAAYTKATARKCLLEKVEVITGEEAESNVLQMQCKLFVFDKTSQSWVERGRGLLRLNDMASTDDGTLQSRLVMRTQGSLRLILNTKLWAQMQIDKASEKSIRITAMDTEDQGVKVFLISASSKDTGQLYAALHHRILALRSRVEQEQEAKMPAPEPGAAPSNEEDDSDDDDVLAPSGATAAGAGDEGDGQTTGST

Compound: Nc1nc2c(ncn2[C@@H]2O[C@H](COP(=O)(O)OP(=O)(O)OP(=O)(O)O)[C@@H](O)[C@H]2O)c(=O)[nH]1 [guanosine triphosphate]
Experiment: NP40-soluble protein abundance relative to vehicle (solubility fold change) (ratio); higher = more soluble protein in presence of GTP
Outline: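 Each value is a fold change relative to the detergent-processed vehicle, calculated per replicate from vsn-normalised intensities. Jurkat crude lysate received eight concentrations (0.1 to 10 mM) for 10 min at room temperature and 3 min at 37 °C, then was solubilised in 0.8% NP40 with benzonase (60 min, 4 °C). The ultracentrifuged supernatant was TMT-labelled and run by LC-MS/MS in three independent experiments.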

| Target | NP40-soluble protein abundance (concentration: 0.1mM) | NP40-soluble protein abundance (concentration: 0.5mM) | NP40-soluble protein abundance (concentration: 1mM) | NP40-soluble protein abundance (concentration: 2mM) | NP40-soluble protein abundance (concentration: 4mM) | NP40-soluble protein abundance (concentration: 6mM) | NP40-soluble protein abundance (concentration: 8mM) | NP40-soluble protein abundance (concentration: 10mM) |
| --- | --- | --- | --- | --- | --- | --- | --- | --- |
| UniProt Q9H9Y6 and related entries | 1.07 ± 0.13 | 1.11 ± 0.11 | 1.05 ± 0.14 | 1.19 ± 0.2 | 1.26 ± 0.19 | 1.26 ± 0.23 | 1.24 ± 0.15 | 1.23 ± 0.17 |
| WDR54 (UniProt Q9H977) | 1.03 ± 0.098 | 1.07 ± 0.12 | 0.9175 ± 0.0071 | 0.982 ± 0.14 | 1.03 ± 0.14 | 0.95 ± 0.14 | 0.977 ± 0.1 | 0.925 ± 0.086 |
| UniProt Q9H8Y8 and related entries | 0.893 ± 0.088 | 0.934 ± 0.09 | 0.911 ± 0.095 | 0.873 ± 0.087 | 0.836 ± 0.091 | 0.858 ± 0.059 | 0.884 ± 0.091 | 0.892 ± 0.12 |
| UniProt Q9NSK0 and related entries | 0.943 ± 0.071 | 0.945 ± 0.085 | 0.973 ± 0.084 | 0.949 ± 0.1 | 0.94 ± 0.086 | 0.948 ± 0.068 | 0.963 ± 0.089 | 0.949 ± 0.078 |
| UniProt Q9C0E8 and related entries | 0.921 ± 0.042 | 0.973 ± 0.1 | 0.938 ± 0.042 | 0.941 ± 0.12 | 0.887 ± 0.085 | 0.983 ± 0.14 | 0.916 ± 0.062 | 0.939 ± 0.028 |
| UniProt Q9HA47 and related entries | 1.01 ± 0.02 | 0.946 ± 0.037 | 1.05 ± 0.1 | 0.966 ± 0.056 | 0.98 ± 0.1 | 0.987 ± 0.034 | 0.983 ± 0.12 | 0.958 ± 0.024 |
| UniProt Q9H300 and related entries | 0.944 ± 0.046 | 0.996 ± 0.034 | 0.903 ± 0.061 | 0.955 ± 0.016 | 0.921 ± 0.067 | 0.982 ± 0.072 | 0.98 ± 0.069 | 1.02 ± 0.079 |
| WDR55 (UniProt Q9H6Y2) | 1.1 ± 0.043 | 1.08 ± 0.11 | 1.18 ± 0.053 | 1.12 ± 0.047 | 1.19 ± 0.081 | 1.22 ± 0.028 | 1.23 ± 0.043 | 1.2 ± 0.047 |
| BIRC6 (UniProt Q9NR09) | 1.04 ± 0.096 | 1.12 ± 0.15 | 1.15 ± 0.14 | 1.21 ± 0.17 | 1.19 ± 0.2 | 1.19 ± 0.22 | 1.17 ± 0.22 | 1.14 ± 0.18 |
| UniProt Q9H425 and related entries | 0.956 ± 0.06 | 0.956 ± 0.11 | 1.05 ± 0.14 | 0.983 ± 0.14 | 0.973 ± 0.14 | 0.994 ± 0.13 | 1.01 ± 0.064 | 0.989 ± 0.079 |
| PLEKHA1 (UniProt Q9HB21) | 1.02 ± 0.021 | 1.02 ± 0.033 | 0.946 ± 0.024 | 0.976 ± 0.045 | 0.942 ± 0.022 | 0.971 ± 0.011 | 0.923 ± 0.036 | 0.916 ± 0.076 |
| SMYD2 (UniProt Q9NRG4) | 1.06 ± 0.11 | 1.08 ± 0.096 | 0.989 ± 0.091 | 0.96 ± 0.092 | 0.958 ± 0.1 | 0.983 ± 0.1 | 0.982 ± 0.12 | 0.919 ± 0.079 |
| POFUT1 (UniProt Q9H488) | 1.04 ± 0.054 | 0.988 ± 0.081 | 0.969 ± 0.082 | 0.939 ± 0.1 | 0.919 ± 0.11 | 0.911 ± 0.066 | 0.904 ± 0.095 | 0.884 ± 0.097 |
| MRPL44 (UniProt Q9H9J2) | 1.07 ± 0.11 | 1.12 ± 0.21 | 1.25 ± 0.3 | 1.36 ± 0.34 | 1.35 ± 0.31 | 1.33 ± 0.35 | 1.35 ± 0.36 | 1.24 ± 0.32 |
| SCAF1 (UniProt Q9H7N4) | 1.04 ± 0.034 | 1.09 ± 0.041 | 1.16 ± 0.014 | 1.21 ± 0.06 | 1.25 ± 0.038 | 1.31 ± 0.049 | 1.37 ± 0.076 | 1.41 ± 0.088 |
| NIT2 (UniProt Q9NQR4) | 0.947 ± 0.04 | 0.958 ± 0.039 | 0.891 ± 0.041 | 0.867 ± 0.036 | 0.856 ± 0.051 | 0.856 ± 0.046 | 0.848 ± 0.055 | 0.853 ± 0.059 |
| ACTR8 (UniProt Q9H981) | 1.12 ± 0.14 | 1.13 ± 0.036 | 1.12 ± 0.074 | 1.13 ± 0.14 | 1.17 ± 0.13 | 1.15 ± 0.12 | 1.22 ± 0.2 | 1.18 ± 0.14 |
| PPCS (UniProt Q9HAB8) | 1.01 ± 0.022 | 0.983 ± 0.032 | 0.929 ± 0.036 | 0.895 ± 0.03 | 0.901 ± 0.076 | 0.905 ± 0.073 | 0.857 ± 0.07 | 0.847 ± 0.087 |
| UniProt Q9H078 and related entries | 1.02 ± 0.096 | 1.11 ± 0.16 | 1.03 ± 0.11 | 1.06 ± 0.081 | 1.02 ± 0.098 | 1.08 ± 0.098 | 1.02 ± 0.091 | 1.01 ± 0.063 |
| UniProt Q9GZY4 | 1.02 ± 0.048 | 1.04 ± 0.081 | 0.998 ± 0.051 | 0.973 ± 0.1 | 0.971 ± 0.079 | 0.994 ± 0.11 | 0.988 ± 0.092 | 0.94 ± 0.061 |
| UniProt Q9NRL2 and related entries | 1.02 ± 0.032 | 1.06 ± 0.056 | 1.06 ± 0.037 | 1.09 ± 0.054 | 1.13 ± 0.034 | 1.15 ± 0.036 | 1.19 ± 0.056 | 1.16 ± 0.039 |
| MRPL40 (UniProt Q9NQ50) | 1.06 ± 0.2 | 1.08 ± 0.22 | 1.31 ± 0.35 | 1.41 ± 0.34 | 1.47 ± 0.35 | 1.42 ± 0.37 | 1.49 ± 0.42 | 1.45 ± 0.45 |
| REXO4 (UniProt Q9GZR2) | 0.974 ± 0.054 | 0.964 ± 0.087 | 0.996 ± 0.072 | 0.994 ± 0.086 | 1.01 ± 0.065 | 1.08 ± 0.098 | 1.07 ± 0.081 | 1.09 ± 0.088 |
| MRPL46 (UniProt Q9H2W6) | 0.904 ± 0.21 | 0.888 ± 0.2 | 1.11 ± 0.22 | 1.18 ± 0.22 | 1.15 ± 0.2 | 1.14 ± 0.22 | 0.981 ± 0.22 | 1.09 ± 0.29 |
| UniProt Q9GZS1-2 | 1.04 ± 0.041 | 1.04 ± 0.023 | 1.06 ± 0.053 | 1.08 ± 0.024 | 1.13 ± 0.026 | 1.17 ± 0.026 | 1.18 ± 0.047 | 1.18 ± 0.026 |
| UniProt Q9C0I1 and related entries | 1.06 ± 0.052 | 1.04 ± 0.098 | 0.989 ± 0.18 | 0.984 ± 0.08 | 1.07 ± 0.082 | 0.96 ± 0.089 | 0.973 ± 0.025 | 0.934 ± 0.022 |
| LRRC40 (UniProt Q9H9A6) | 0.983 ± 0.024 | 1 ± 0.035 | 0.944 ± 0.033 | 0.945 ± 0.052 | 0.935 ± 0.042 | 0.908 ± 0.046 | 0.894 ± 0.035 | 0.897 ± 0.067 |
| WDR11 (UniProt Q9BZH6) | 1.3 ± 0.42 | 1.08 ± 0.14 | 1.19 ± 0.28 | 1.09 ± 0.16 | 1.03 ± 0.19 | 1.07 ± 0.14 | 1 ± 0.15 | 1.01 ± 0.13 |
| UniProt Q9H6Z4 and related entries | 0.956 ± 0.081 | 0.905 ± 0.058 | 0.904 ± 0.052 | 0.877 ± 0.071 | 0.894 ± 0.11 | 0.844 ± 0.039 | 0.901 ± 0.12 | 0.889 ± 0.12 |
| SFXN1 (UniProt Q9H9B4) | 0.976 ± 0.055 | 0.962 ± 0.038 | 0.935 ± 0.07 | 0.917 ± 0.08 | 0.916 ± 0.11 | 0.918 ± 0.075 | 0.885 ± 0.1 | 0.873 ± 0.097 |

Looked up one by one from the entries so far (two):

| Target | NP40-soluble protein abundance (concentration: 0.1mM) | NP40-soluble protein abundance (concentration: 0.5mM) | NP40-soluble protein abundance (concentration: 1mM) | NP40-soluble protein abundance (concentration: 2mM) | NP40-soluble protein abundance (concentration: 4mM) | NP40-soluble protein abundance (concentration: 6mM) | NP40-soluble protein abundance (concentration: 8mM) | NP40-soluble protein abundance (concentration: 10mM) |
| --- | --- | --- | --- | --- | --- | --- | --- | --- |
| PLEKHA1 (UniProt Q9HB21) | 1.02 ± 0.021 | 1.02 ± 0.033 | 0.946 ± 0.024 | 0.976 ± 0.045 | 0.942 ± 0.022 | 0.971 ± 0.011 | 0.923 ± 0.036 | 0.916 ± 0.076 |
| UniProt Q9HA47 and related entries | 1.01 ± 0.02 | 0.946 ± 0.037 | 1.05 ± 0.1 | 0.966 ± 0.056 | 0.98 ± 0.1 | 0.987 ± 0.034 | 0.983 ± 0.12 | 0.958 ± 0.024 |
